In this test the target is hAng2-Fc (Beijing Sino Biological, Catalog No. 10691-H02H) (human) (UniProt O15123). The experiment in a line: flow cytometry blocking: hAng2-Fc on 293-Tie2 cells, antibody titrated from 400 nM. For orientation: A flow cytometer gives signals particle by particle.

By UniProt entry, the sequences of proteins in these tests, tags left out. Where a name states a change or a piece, a line headed by the entry shows the natural chain unless it says otherwise. Residues count along the entry.
UniProt O15123, residues 19-496: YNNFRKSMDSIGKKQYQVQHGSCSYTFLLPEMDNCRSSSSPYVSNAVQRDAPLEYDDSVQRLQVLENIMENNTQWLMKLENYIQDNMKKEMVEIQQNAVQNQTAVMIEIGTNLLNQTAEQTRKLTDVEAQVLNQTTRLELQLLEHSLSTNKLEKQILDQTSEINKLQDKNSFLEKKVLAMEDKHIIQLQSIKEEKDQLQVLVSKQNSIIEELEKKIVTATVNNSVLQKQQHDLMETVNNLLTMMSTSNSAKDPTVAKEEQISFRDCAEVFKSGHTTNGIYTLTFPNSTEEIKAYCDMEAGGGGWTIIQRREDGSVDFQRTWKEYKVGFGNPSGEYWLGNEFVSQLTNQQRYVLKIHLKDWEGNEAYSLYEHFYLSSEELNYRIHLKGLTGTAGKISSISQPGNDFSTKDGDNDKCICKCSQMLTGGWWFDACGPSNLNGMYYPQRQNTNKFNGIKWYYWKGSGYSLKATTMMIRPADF

No constants are given. Whether binding was seen depends on the method and setting. Some entries that bind do so weakly or less than the wild type.

B1: IEX04-008 (bispecific antibody)
chain: EVQLLESGGGLVQPGGSLRLSCAASGSIFSINAMGWHRQAPGKQRELVATMIGGSSTFYAESVQGRFTISRDNSKNTVYLQMNSLRAEDTAVYYCYADVTGRSGTSIWNKRDDYWGQGTQVTVSSGGGGSGGGGSEVQLLESGGGLVQPGGSLRLSCAASGSIFSINAMGWHRQAPGKQRELVATMIGGSSTFYAESVQGRFTISRDNSKNTVYLQMNSLRAEDTAVYYCYADVTGRSGTSIWNKRDDYWGQGTQVTVSSGGGGSGGGGSEVQLLESGGGLVQPGGSLRLSCAASGFALDYYAIGWFRQAPGKGLEGVSCISSGEGSTYYADSVKGRFTISRDNSKNTVYLQMNSLRAEDTAVYYCATDSRGDDVACEGLRRNEYDYWGQGTLVTVSS
notes: expressed in 293 cells; also called LA46E11.8 (VHH) + linker + LA46E11.8 (VHH) + LA24C11.10
As to B1, the binding result is “binds”.

For the origin of these results see patent EP4628097A1 (Innovent Biologics (Suzhou) Co., Ltd., dated 2025).
